No constants are given. Whether binding was seen depends on the method and setting. In cells and extracts the contact can be indirect. Some binding calls cover weakened binding; strength is not graded here.
Target: BioGFP-MICAL3 (UniProt Q7RTP6)
Assay: cross-linking; complexes from co-transfected HEK293T cells isolated in one step on streptavidin Dynabeads by the BioGFP bait, cross-linked on beads with 1 mM DSSO (20 mM HEPES pH 7.8, 150 mM NaCl, 45 min, room temperature), trypsin digest, LC/MS/MS, XlinkX, 1% FDR

By UniProt entry, the sequences of proteins in these tests, tags left out.
UniProt Q7RTP6: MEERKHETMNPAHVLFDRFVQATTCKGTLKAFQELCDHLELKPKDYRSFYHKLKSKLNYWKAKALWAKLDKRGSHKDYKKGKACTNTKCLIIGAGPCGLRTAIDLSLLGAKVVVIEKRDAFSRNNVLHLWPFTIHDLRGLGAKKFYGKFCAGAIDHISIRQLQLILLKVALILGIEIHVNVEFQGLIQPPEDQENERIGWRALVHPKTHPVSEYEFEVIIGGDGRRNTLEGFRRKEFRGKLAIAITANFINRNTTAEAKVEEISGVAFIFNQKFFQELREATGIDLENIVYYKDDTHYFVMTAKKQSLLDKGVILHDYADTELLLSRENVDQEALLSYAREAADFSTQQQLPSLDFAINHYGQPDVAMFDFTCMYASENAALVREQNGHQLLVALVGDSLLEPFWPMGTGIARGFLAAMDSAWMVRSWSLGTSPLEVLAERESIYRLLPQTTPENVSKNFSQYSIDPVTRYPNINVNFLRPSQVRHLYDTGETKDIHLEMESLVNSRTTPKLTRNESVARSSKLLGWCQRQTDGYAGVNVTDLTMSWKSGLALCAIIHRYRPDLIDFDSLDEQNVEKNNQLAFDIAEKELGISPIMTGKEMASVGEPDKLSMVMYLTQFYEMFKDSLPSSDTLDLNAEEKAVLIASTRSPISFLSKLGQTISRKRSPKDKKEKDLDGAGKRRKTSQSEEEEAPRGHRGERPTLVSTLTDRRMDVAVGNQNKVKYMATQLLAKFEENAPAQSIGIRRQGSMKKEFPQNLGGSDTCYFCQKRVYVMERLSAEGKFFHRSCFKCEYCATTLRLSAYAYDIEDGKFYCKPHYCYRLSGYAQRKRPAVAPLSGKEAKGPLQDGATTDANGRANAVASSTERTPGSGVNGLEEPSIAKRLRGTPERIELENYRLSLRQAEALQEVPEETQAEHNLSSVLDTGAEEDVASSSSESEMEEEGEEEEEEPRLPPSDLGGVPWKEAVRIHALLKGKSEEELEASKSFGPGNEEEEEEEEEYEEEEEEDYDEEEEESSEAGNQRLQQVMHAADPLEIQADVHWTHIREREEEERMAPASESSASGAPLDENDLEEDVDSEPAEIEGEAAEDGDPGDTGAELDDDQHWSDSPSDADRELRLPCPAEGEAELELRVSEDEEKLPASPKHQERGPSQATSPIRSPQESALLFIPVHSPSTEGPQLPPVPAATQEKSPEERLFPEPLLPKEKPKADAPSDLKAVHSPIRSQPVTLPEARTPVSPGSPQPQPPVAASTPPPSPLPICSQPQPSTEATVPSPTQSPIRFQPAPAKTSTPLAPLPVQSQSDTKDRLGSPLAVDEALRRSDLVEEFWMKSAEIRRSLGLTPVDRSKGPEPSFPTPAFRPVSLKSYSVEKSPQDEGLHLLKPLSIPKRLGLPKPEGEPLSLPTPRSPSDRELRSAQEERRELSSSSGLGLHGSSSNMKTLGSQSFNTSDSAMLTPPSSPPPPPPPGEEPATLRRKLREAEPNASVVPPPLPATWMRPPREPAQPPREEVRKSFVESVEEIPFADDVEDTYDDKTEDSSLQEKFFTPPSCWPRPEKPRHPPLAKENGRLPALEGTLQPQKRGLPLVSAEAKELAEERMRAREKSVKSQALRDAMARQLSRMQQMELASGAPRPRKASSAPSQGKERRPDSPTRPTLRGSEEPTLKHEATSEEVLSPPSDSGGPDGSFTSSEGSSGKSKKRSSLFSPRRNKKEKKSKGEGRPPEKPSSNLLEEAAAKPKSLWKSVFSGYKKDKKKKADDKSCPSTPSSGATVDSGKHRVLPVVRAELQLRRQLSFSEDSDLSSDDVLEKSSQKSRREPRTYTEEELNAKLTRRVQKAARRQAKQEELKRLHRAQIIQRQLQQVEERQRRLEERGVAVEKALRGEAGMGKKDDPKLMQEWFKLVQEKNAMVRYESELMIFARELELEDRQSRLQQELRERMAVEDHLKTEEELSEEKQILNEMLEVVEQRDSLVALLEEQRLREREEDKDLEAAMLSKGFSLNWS
UniProt P61006: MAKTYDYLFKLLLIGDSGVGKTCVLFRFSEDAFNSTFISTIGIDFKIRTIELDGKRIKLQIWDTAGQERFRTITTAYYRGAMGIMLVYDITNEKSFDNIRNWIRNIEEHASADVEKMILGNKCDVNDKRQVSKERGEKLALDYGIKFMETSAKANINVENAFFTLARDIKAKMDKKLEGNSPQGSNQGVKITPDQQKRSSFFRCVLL

For BFP-Rab8A (from UniProt P61006 1-207), which binding is on record?
The binding was “binds”.

B1: mCherry-ELKS-FL (protein, UniProt Q8IUD2 1-1116)
chain: MYGSARSVGKVEPSSQSPGRSPRLPRSPRLGHRRTNSTGGSSGSSVGGGSGKTLSMENIQSLNAAYATSGPMYLSDHENVGSETPKSTMTLGRSGGRLPYGVRMTAMGSSPNIASSGVASDTIAFGEHHLPPVSMASTVPHSLRQARDNTIMDLQTQLKEVLRENDLLRKDVEVKESKLSSSMNSIKTFWSPELKKERALRKDEASKITIWKEQYRVVQEENQHMQMTIQALQDELRIQRDLNQLFQQDSSSRTGEPCVAELTEENFQRLHAEHERQAKELFLLRKTLEEMELRIETQKQTLNARDESIKKLLEMLQSKGLSAKATEEDHERTRRLAEAEMHVHHLESLLEQKEKENSMLREEMHRRFENAPDSAKTKALQTVIEMKDSKISSMERGLRDLEEEIQMLKSNGALSTEEREEEMKQMEVYRSHSKFMKNKVEQLKEELSSKEAQWEELKKKAAGLQAEIGQVKQELSRKDTELLALQTKLETLTNQFSDSKQHIEVLKESLTAKEQRAAILQTEVDALRLRLEEKETMLNKKTKQIQDMAEEKGTQAGEIHDLKDMLDVKERKVNVLQKKIENLQEQLRDKEKQMSSLKERVKSLQADTTNTDTALTTLEEALAEKERTIERLKEQRDRDEREKQEEIDNYKKDLKDLKEKVSLLQGDLSEKEASLLDLKEHASSLASSGLKKDSRLKTLEIALEQKKEECLKMESQLKKAHEAALEARASPEMSDRIQHLEREITRYKDESSKAQAEVDRLLEILKEVENEKNDKDKKIAELERQVKDQNKKVANLKHKEQVEKKKSAQMLEEARRREDNLNDSSQQLQDSLRKKDDRIEELEEALRESVQITAEREMVLAQEESARTNAEKQVEELLMAMEKVKQELESMKAKLSSTQQSLAEKETHLTNLRAERRKHLEEVLEMKQEALLAAISEKDANIALLELSSSKKKTQEEVAALKREKDRLVQQLKQQTQNRMKLMADNYEDDHFKSSHSNQTNHKPSPDQIIQPLLELDQNRSKLKLYIGHLTTLCHDRDPLILRGLTPPASYNLDDDQAAWENELQKMTRGQLQDELEKGERDNAELQEFANAILQQIADHCPDILEQVVNALEESS
B1 was tested. Which binding did it give?
Its binding is “binds”.
